Taken from: PubChem BioAssay AID1259405 (NCATS, 2018)

Aim: 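Mouse-designed siRNAs used to find CHO productivity engineering targets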 (primary screen)
Cell system: Chinese hamster CHO-K1 ovary cells with stable secreted eGFP expression
Knock-down reagent: single siRNA against mouse genes, 0.8 pmol siRNA per well (2 µl of 400 nM stock)
Duration: 3 days
Detection: 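Percent of the per-plate non-targeting control median for intracellular GFP per well by laser scanning cytometry and for cell viability by ATP luminescence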
Reading the numbers: GFP, % of control: higher = more GFP per well, higher productivity; viability (ATP), % of control: higher = more viable cells (more ATP)
Rule for the call: 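Called active when intracellular GFP, relative to negative control, is at or above 120%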
The whole screen tested about 50,000 reagents; this is a part drawn at random. Over the whole deposit, about 4,000 (8%) were called active. 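Mouse siRNA library applied to hamster cells; one well for each siRNA.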 Entries without a mark were called inactive. The numbers tell different reagents against one gene apart.

Rgn #1 → GFP, % of control = 83.4; viability (ATP), % of control = 61.6
Rgn #2 → GFP, % of control = 86.7; viability (ATP), % of control = 73.6
Rgn #3 → GFP, % of control = 61.5; viability (ATP), % of control = 60.4
Ube4b #1 → GFP, % of control = 89.3; viability (ATP), % of control = 94.6
Ube4b #2 → GFP, % of control = 73.6; viability (ATP), % of control = 85.2
Ube4b #3 → GFP, % of control = 59.3; viability (ATP), % of control = 68.5
Asap1 #1 → GFP, % of control = 83.3; viability (ATP), % of control = 83.9
Asap1 #2 → GFP, % of control = 79.3; viability (ATP), % of control = 85.8
Asap1 #3 → GFP, % of control = 109; viability (ATP), % of control = 84.9
Fastkd2 #1 → GFP, % of control = 79.3; viability (ATP), % of control = 91.9
Fastkd2 #2 → GFP, % of control = 126 (active); viability (ATP), % of control = 68.1
Fastkd2 #3 → GFP, % of control = 129 (active); viability (ATP), % of control = 72.5
Itga11 #1 → GFP, % of control = 36.6; viability (ATP), % of control = 64.7
Itga11 #2 → GFP, % of control = 65; viability (ATP), % of control = 73.5
Itga11 #3 → GFP, % of control = 95.1; viability (ATP), % of control = 81.6
Sec14l2 #1 → GFP, % of control = 78.5; viability (ATP), % of control = 81.6
Sec14l2 #2 → GFP, % of control = 62.5; viability (ATP), % of control = 42.4
Sec14l2 #3 → GFP, % of control = 63.2; viability (ATP), % of control = 88.5

2 consecutive reagents already listed, quoted:
Fastkd2 #1 → GFP, % of control = 79.3; viability (ATP), % of control = 91.9
Fastkd2 #2 → GFP, % of control = 126 (active); viability (ATP), % of control = 68.1
